Data: PubChem BioAssay AID2073 (Sanford-Burnham Center for Chemical Genomics, 2009)
Among all 290,000 compounds or so, about 570 (0.2%) were called active. Inconclusive results, whose numbers are uncertain, are shown with a selection of clear calls. No stated cut-off is given here; in the data, active means inhibition mostly above about 51% (no sharp cut-off); inconclusive means no clear call, values can overlap the other calls; inactive means mostly below about 53%.

Sequences of proteins named here, by UniProt entry; tags and fusion partners are left off.
UniProt Q00975, whole entry, looked up: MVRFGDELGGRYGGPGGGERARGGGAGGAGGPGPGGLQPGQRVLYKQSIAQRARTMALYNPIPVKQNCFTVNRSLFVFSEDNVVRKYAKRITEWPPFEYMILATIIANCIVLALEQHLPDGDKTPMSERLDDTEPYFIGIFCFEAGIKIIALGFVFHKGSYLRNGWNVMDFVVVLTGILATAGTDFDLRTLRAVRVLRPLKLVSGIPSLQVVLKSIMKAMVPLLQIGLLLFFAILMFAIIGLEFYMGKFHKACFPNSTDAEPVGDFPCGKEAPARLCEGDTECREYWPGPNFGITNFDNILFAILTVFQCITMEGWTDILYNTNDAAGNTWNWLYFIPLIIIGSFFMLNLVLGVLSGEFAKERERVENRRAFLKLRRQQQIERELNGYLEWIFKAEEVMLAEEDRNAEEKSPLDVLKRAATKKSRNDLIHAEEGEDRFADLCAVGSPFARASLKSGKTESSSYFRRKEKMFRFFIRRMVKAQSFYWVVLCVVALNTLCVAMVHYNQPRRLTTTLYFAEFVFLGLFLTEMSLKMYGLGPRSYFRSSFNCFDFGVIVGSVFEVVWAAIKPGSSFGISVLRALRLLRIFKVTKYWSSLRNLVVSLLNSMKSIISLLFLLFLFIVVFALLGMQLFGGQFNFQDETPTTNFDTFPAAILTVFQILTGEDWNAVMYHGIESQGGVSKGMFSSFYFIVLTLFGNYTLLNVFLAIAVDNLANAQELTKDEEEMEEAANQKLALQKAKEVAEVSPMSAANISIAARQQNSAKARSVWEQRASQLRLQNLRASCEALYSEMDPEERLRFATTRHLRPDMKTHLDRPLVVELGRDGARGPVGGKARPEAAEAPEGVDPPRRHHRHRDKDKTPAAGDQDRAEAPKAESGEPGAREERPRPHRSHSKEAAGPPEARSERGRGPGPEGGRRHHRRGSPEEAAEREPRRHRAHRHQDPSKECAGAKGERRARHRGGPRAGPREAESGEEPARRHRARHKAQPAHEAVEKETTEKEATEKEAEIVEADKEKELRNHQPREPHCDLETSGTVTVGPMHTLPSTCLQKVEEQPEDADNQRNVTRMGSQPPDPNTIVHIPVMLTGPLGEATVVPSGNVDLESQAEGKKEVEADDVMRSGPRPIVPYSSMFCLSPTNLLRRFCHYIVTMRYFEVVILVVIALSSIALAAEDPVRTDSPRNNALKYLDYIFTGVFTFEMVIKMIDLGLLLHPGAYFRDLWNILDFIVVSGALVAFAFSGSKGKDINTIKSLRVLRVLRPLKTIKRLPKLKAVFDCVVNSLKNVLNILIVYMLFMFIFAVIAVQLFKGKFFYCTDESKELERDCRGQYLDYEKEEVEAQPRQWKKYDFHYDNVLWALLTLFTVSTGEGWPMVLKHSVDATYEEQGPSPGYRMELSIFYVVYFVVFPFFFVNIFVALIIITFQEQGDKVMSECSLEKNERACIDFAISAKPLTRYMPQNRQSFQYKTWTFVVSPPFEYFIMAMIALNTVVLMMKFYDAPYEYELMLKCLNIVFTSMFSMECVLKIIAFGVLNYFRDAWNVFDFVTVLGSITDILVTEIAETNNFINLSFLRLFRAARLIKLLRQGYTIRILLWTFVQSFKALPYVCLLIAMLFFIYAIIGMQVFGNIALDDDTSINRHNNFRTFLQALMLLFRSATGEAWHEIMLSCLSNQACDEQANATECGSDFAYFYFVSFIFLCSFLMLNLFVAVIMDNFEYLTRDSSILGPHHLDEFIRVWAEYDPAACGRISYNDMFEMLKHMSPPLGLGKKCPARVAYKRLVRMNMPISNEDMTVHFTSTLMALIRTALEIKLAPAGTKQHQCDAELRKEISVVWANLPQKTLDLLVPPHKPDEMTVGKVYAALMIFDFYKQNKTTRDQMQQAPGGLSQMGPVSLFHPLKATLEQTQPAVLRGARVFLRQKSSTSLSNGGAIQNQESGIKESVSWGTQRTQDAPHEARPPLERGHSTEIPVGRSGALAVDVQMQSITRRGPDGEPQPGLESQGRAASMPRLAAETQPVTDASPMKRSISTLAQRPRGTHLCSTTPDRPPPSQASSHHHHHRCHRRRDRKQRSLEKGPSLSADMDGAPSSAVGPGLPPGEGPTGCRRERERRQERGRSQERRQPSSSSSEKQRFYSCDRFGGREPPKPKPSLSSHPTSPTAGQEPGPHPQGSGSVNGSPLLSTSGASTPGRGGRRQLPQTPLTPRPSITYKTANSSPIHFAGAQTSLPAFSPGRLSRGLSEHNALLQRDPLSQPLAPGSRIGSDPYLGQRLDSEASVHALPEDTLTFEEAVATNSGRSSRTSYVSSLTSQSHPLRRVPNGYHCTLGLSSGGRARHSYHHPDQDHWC

target: Voltage-dependent N-type calcium channel subunit alpha-1B (Homo sapiens) (UniProt Q00975); assay: inhibitors of Mint1-CaV2.2 protein interaction, biochemical, HTRF (AID 2073); conditions: at 20 µM, stronger effect = higher value

Structure (SMILES)	inhibition
O=C(O)c1ccc(-n2c(O)c(/C=C3\C=Nc4ccccc43)c(=O)[nH]c2=O)cc1	inconclusive: 59.9%
CC(C)n1c(=O)c(C=Nc2ccc(F)cc2)c(O)n(Cc2ccco2)c1=O	inactive: 14.1%
COc1ccc(-n2c(/C=C/c3ccc(O)c(O)c3)nc3ccccc3c2=O)cc1	inactive: 40.5%
CCCCn1c(O)c(C(CC)=NCc2ccco2)c(=O)[nH]c1=O	inconclusive: 78.8%
CCC(=O)Nc1ccccc1	inactive: -4.1%
CC(=O)N1N=C(c2cccnc2)CC1c1ccccc1O (stereo not drawn)	inconclusive: 66%
COc1ccc(OCCOc2cccc(C=C3C(=O)NC(=O)NC3=O)c2)cc1	inconclusive: 64.4%
Cn1c(O)c(/C=C2\C=Nc3ccc(Br)cc32)c(=O)n(C)c1=O	inconclusive: 54.2%
COc1ccc(C(=O)C2CCCN(C3CSCCSC3)C2)cc1OC (stereo not drawn)	inconclusive: 51.7%
CC(C)C[C@H]1C(=O)N2CCCC2[C@]2(O)O[C@](NC(=O)[C@@H]3C=C4c5cccc6[nH]cc(c56)CC4N(C)C3)(C(C)C)C(=O)N12 (stereo partly drawn)	inactive: 67.7%
CC(C)[C@H]1C(=O)N2CCC[C@H]2[C@]2(O)O[C@](NC(=O)[C@@H]3C=C4c5cccc6[nH]cc(c56)C[C@H]4N(C)C3)(C(C)C)C(=O)N12	inactive: 69.1%
CN1CCC(OC(=O)c2cccc(F)c2)CC1	inconclusive: 69.1%
CC(=O)N1CCN(Cc2ccc(Cl)nc2)CC1	inactive: 5.2%
COc1ccc(NP(=O)(Oc2ccc(Cl)cc2)Oc2ccc(Cl)cc2)cc1OC	inconclusive: 67.2%
Cc1cc(C=C2C(=O)NC(=O)NC2=O)c(C)n1-c1ccc2c(c1)OCO2	inactive: 16.8%
O=c1[nH]c(=S)n(-c2ccccc2Cl)c(O)c1C=NCCN1CCNCC1	inactive: -0.4%
CC(C)n1c(=O)c(C=Nc2ccc(Br)cc2)c(O)n(Cc2ccco2)c1=O	active: 59.1%
O=C(COc1ccccc1)N1CCN(C2CCCC2)CC1	inconclusive: 55.5%
CCOP(=O)(OCC)/C(C#N)=C/c1ccc(Br)cc1	inactive: 3.7%
Cc1ccc(NP(=O)(Nc2ccc(C)cc2)Oc2ccccc2)cc1	inconclusive: 60.8%
Cc1nc2ccc(N3CCN(C)CC3)cc2nc1C	inconclusive: 84.6%
CC[N+]1(C)CCCC(OC(=O)C(O)(c2ccccc2)c2ccccc2)C1 (stereo not drawn)	inconclusive: 52.5%

Single values from above:
Entry for CC(C)n1c(=O)c(C=Nc2ccc(F)cc2)c(O)n(Cc2ccco2)c1=O under inhibition: inactive: 14.1%
Entry for COc1ccc(C(=O)C2CCCN(C3CSCCSC3)C2)cc1OC (stereo not drawn) under inhibition: inconclusive: 51.7%
Entry for CCCCn1c(O)c(C(CC)=NCc2ccco2)c(=O)[nH]c1=O under inhibition: inconclusive: 78.8%
Entry for CC(C)C[C@H]1C(=O)N2CCCC2[C@]2(O)O[C@](NC(=O)[C@@H]3C=C4c5cccc6[nH]cc(c56)CC4N(C)C3)(C(C)C)C(=O)N12 (stereo partly drawn) under inhibition: inactive: 67.7%
Entry for CCC(=O)Nc1ccccc1 under inhibition: inactive: -4.1%
Entry for COc1ccc(OCCOc2cccc(C=C3C(=O)NC(=O)NC3=O)c2)cc1 under inhibition: inconclusive: 64.4%
Entry for Cn1c(O)c(/C=C2\C=Nc3ccc(Br)cc32)c(=O)n(C)c1=O under inhibition: inconclusive: 54.2%

Later entries:

Structure (SMILES)	inhibition
c1ccc2cc(C3N4CCCN34)ccc2c1 (stereo not drawn)	inconclusive: 58%
COc1ccc(C2SCC(=O)Nc3c2c(=O)[nH]n3C2CCCCC2)cc1 (stereo not drawn)	inconclusive: 55.9%
Cc1cccc(N=Cc2c(O)n(-c3ccccc3C)c(=O)[nH]c2=O)c1	inconclusive: 64.8%
O=C(Nc1ccccc1F)OC1CN2CCC1CC2 (stereo not drawn)	inconclusive: 78.2%
O=C1NC(=S)N(Cc2ccco2)C(=O)/C1=C\c1cccs1	active: 76.9%
COc1ccc2c(c1OC)CN1CCc3cc4c(cc3C1C2)OCO4 (stereo not drawn)	inconclusive: 56.1%
CN1/C(=C\C=C\C2=[N+](C)c3ccc4ccccc4c3C2(C)C)C(C)(C)c2ccccc21	inconclusive: 51.9%
CC(C)[C@@]1(NC(=O)[C@@H]2C=C3c4cccc5[nH]cc(c45)C[C@H]3N(C)C2)O[C@@]2(O)[C@@H]3CCCN3C(=O)[C@H](Cc3ccccc3)N2C1=O	active: 66.3%
CSc1nc(N)c(N=Nc2ccc([As](=O)(O)O)cc2)c(=O)[nH]1	active: 58.9%
CCc1nc2ccc(N3CCN(C)CC3)cc2nc1CC	inconclusive: 64.4%
Cc1c(CC(=O)N2C[C@H]3C[C@@H](C2)c2cccc(=O)n2C3)c(=O)oc2c(C)c(O)ccc12	inconclusive: 59.4%
NC(=O)c1c(NC(=O)c2ccc(S(=O)(=O)N(CCCl)CCCl)cc2)sc2c1CCCCC2	inconclusive: 55.8%
COc1ccc(CCn2c(O)c(C=Nc3ccc(NC(C)=O)cc3)c(=O)[nH]c2=O)cc1OC	inconclusive: 73.7%
Cc1ccc(CS(=O)(=O)CCC(=O)N2CCC3(CC2)OCCO3)cc1	inconclusive: 69.1%
COc1cc2c(cc1OC)CC[N+](C)=C2	inconclusive: 50.9%
CCn1cc(C=C2C(=O)NC(=O)NC2=O)c2ccccc21	inconclusive: 89.2%
C[n+]1ccc(-c2ccncc2)cc1	inactive: 6.3%
O=C1NC(=O)C(CCc2ccncc2)(CCc2ccccn2)C(=O)N1c1ccc(Br)cc1 (stereo not drawn)	inactive: 16.2%
O=C(CN1CCCCC1)c1ccc2c(c1)OCO2	inconclusive: 64.7%
CCOc1c(P(=S)(N(C)C)N(C)C)c(C)nn1-c1ccccc1	inconclusive: 66%
COc1cccc(-n2c(/C=C/c3ccc(O)c(O)c3)nc3ccccc3c2=O)c1	active: 62.6%
Cc1ccccc1N1C(=O)/C(=C/c2ccco2)C(=O)NC1=S	inconclusive: 88.3%

Structure (SMILES)	inhibition
CC(C)OCCCNC(=O)c1c(N)n(Cc2cccs2)c2nc3ccccc3nc12	inconclusive: 60.9%
CCc1ccc(-n2c(O)c(/C=N/NC(=O)c3ccncc3)c(=O)[nH]c2=O)cc1	inconclusive: 50.1%
O=c1[nH]c(=S)n(Cc2ccco2)c(O)c1C=NCc1cccs1	inconclusive: 87.1%
CC12CN3CC(C)(CN(C1)C3c1ccncc1)C2=O (stereo not drawn)	inconclusive: 73.5%
CN1C(=O)C(=Cc2ccc(OCCN(C)c3ccccn3)cc2)C(=O)N(C)C1=O	inactive: 3.3%
O=c1[nH]c(=O)n(-c2cccc(Cl)c2)c(O)c1C=NCCN1CCCCC1	inconclusive: 52.3%
COc1ccc(Cl)cc1N=Cc1c(O)n(C)c(=O)n(C)c1=O	inactive: 15.7%
CCCCn1c(O)c(/C=C2/C=CC=N2)c(=O)[nH]c1=O	inconclusive: 60.5%
CNC(=S)N(C)CCc1cc2c(c(OC)c1C=C1C(=O)NC(=O)NC1=O)OCO2	active: 50.6%
Cc1ccc(C)c(OCC(=O)N2CCN(Cc3ccc4c(c3)OCO4)CC2)c1	inconclusive: 50.5%
CCC(=O)O[C@@H]1[C@@H](OC(C)=O)[C@@]2(O)C(C[C@H](O)C2(C)C)[C@](C)(O)[C@H]2CC[C@@H]3[C@@H](O)[C@]12C[C@@]3(C)O (stereo partly drawn)	inconclusive: 69.6%
C=Cn1ccnc1P(=S)(c1ccc(Cl)cc1)c1nccn1C=C	inactive: 4.2%
O=C(O)CCn1cc(C=C2C(=O)NC(=S)NC2=O)c(-c2cccc(Br)c2)n1	active: 75.7%
Cc1ccc(CN2CCCC(C(=O)c3ccc4c(c3)OCO4)C2)cc1C (stereo not drawn)	inconclusive: 56.7%
CCCCc1nc2ccccc2c(=O)n1-c1ccccc1O	inconclusive: 62.9%
c1ccc(C2=NP(N3CCOCC3)(N3CCOCC3)=NC(N3CCOCC3)=N2)cc1	inconclusive: 79.3%
COc1cc(OC)c(OC)cc1CN1CCN(C(=O)COc2ccc3ccccc3c2)CC1	inconclusive: 53.2%
CC(C)(C)C(=O)Cn1c(NCCCl)nc2ccccc21	inconclusive: 62.3%
CCCCCCC(=O)c1c(O)n(-c2ccc(OC)cc2)c(=O)[nH]c1=O (tested in a mixture with another compound)	inconclusive: 59.4%
CN1C(=O)/C(=C/C=C/c2ccco2)C(=O)NC1=S	inconclusive: 69.2%
Cc1cc(=O)oc2cc3c(cc12)CCCN3	inconclusive: 51.3%
S=C(NCCc1ccccc1)NCCc1cnc[nH]1	inconclusive: 82.2%

Structure (SMILES)	inhibition
COc1c(C=C2C(=O)NC(=O)NC2=O)c(CCN(C)C(=O)c2ccccc2)cc2c1OCO2	inactive: 15.8%
C=CCN1C(=O)/C(=C/c2cccs2)C(=O)NC1=S	inactive: -17.9%
CN1CCN(c2ccc3nccnc3c2)CC1	inconclusive: 54.4%
COc1ccc(-n2c(/C=C/c3ccc(O)c(OC)c3)nc3ccccc3c2=O)cc1	inconclusive: 60.5%
CC(=O)c1ccc(OCC(=O)N2CCCC(N(C)Cc3ccccc3)C2)cc1 (stereo not drawn)	inconclusive: 64.3%
CCCCC/C=C\C/C=C\C/C=C\C/C=C\CCCC(=O)Nc1ccc(O)cc1	active: 51%
O=C(CN1CC(c2ccccc2)CC1=O)NCc1ccc(F)cc1 (stereo not drawn)	inactive: -3.7%
CN1C(=O)COc2c(C(=O)NC3CN4CCC3CC4)cc(Cl)cc21 (stereo not drawn)	inconclusive: 53.6%
O=c1c2ccccc2nc(/C=C/c2ccc(O)c(O)c2)n1-c1ccccc1	inactive: 33.3%
NP(=O)(OCCCc1ccccc1)Oc1ccc(Cl)cc1 (stereo not drawn)	inactive: 2.9%
COc1ccc2c(CCN)c[nH]c2c1	inconclusive: 53.7%
CCN1CCN(c2ccc(N)cc2C)CC1	inconclusive: 68.6%
COc1ccc(/C=C2/C(=O)N(Cc3ccco3)C(=O)N(C(C)C)C2=O)cc1	inconclusive: 66.3%
CN1CCN(C(=O)Cc2ccccc2)CC1	inactive: 5.6%
O=C1C2(c3ccccc3)CN3CN(C2)CC1(c1ccccc1)C3	inactive: -5.2%
O=C1NC(=O)N(Cc2ccc(F)cc2)C(=O)/C1=C/c1cccs1	inactive: 29.5%
O=C1CC(=O)N(c2cccc(Br)c2)C(=O)N1	inactive: 3.7%
Cc1cc(C=C2C(=O)NC(=S)NC2=O)c(C)n1-c1ccc2c(c1)OCO2	active: 53.2%
CN(C)C(=S)SSC(=S)N(C)C	active: 78%
O=c1ccc2cc(O[C@@H]3O[C@@H](CO)[C@H](O)[C@@H](O)[C@@H]3O)c(O)cc2o1	inconclusive: 52.4%
N#CC(C#N)=Cc1ccc(C=C(C#N)C#N)cc1	inactive: 19.1%
Cc1ccc(NC(=O)c2cn(CCC#N)nc2-c2ccc3c(c2)OCCO3)c([N+](=O)[O-])c1	inactive: -4.2%
